Results from publication PMC9181014 (International Journal of Molecular Sciences, 2022).
HELM strings list residues between dots; [ac] is acetyl, [am] amide, other brackets name non-standard units.

Experiment: general procedure: Fmoc solid-phase peptide synthesis; Fmoc Rink amide MBHA resin (substitution 0.67 mmol/g); DIC/Oxyma
Details: whole synthesis, analytical RP-HPLC

## PEPTIDE1{[Suc].G.L.Q.R.M.V.L.V.D.L.K.G.G.Y.G.R.K.K.R.R.Q.R.R.R.[am]}$PEPTIDE1,PEPTIDE1,1:R3-12:R3$$$V2.0
  final HPLC purity: 100.00%
